PubChem BioAssay AID743454 – Peter MacCallum Cancer Centre | 2014

Screen: 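Search for knock-downs that restore vorinostat killing in resistant colon cancer cells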 (primary screen)
Cells: human HCT116-VR colon cancer cells, selected for vorinostat resistance
Knock-down reagent: siRNA pool against human genes, 40 nM siRNA pool
Timing: vorinostat for 24 h, read-out about 72 h after transfection
Challenge: vorinostat at 2.5 µM final
Measurement: 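Cell viability by CellTiter-Fluor and caspase 3/7 activity by luminescence, each scaled to mock wells per plate, duplicates averaged, then robust z-scored over all plates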
Reading the numbers: viability robust z-score: higher = more viable cells than screen typical; caspase robust z-score: higher = more caspase 3/7 activity than screen typical
Rule for the call: 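Hits are knock-downs in viability class RV1/RV2 or caspase class CA1/CA2, excluding ones that killed cells in the no-drug cell-count arm; hits then retested with single siRNAs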
The deposit covers about 18,000 reagents; this is a part drawn at random. Over the whole deposit, 450 (2.5%) are marked active. 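Single biological run; no consistent viability z cut-off exists, so the class columns, not z-scores, define the calls.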 The numbers tell different reagents against one gene apart.

target,pool no.,viability hit class,caspase hit class,viability robust z-score,caspase robust z-score,Call
SLFN11,1,no change,no change,1.36,-0.83,inactive
G6PC3,1,no change,no change,-0.11,-0.78,inactive
DHX30,1,no change,no change,-0.62,-0.16,inactive
TM4SF4,1,no change,no change,1.12,-0.55,inactive
LILRB1,1,no change,no change,-0.57,3.25,inactive
SPDYC,1,no change,no change,0.98,0.14,inactive
B3GAT2,1,no change,no change,-0.28,-0.36,inactive
GLI1,1,no change,CA2 (caspase activation),-2.35,5.98,active
PNMA2,1,no change,no change,-0.92,-0.76,inactive
THG1L,1,no change,no change,0.39,-0.74,inactive
R3HDM1,1,no change,no change,-1.65,1.62,inactive
OR51B2,1,no change,no change,1.07,-0.78,inactive
GIMAP2,1,no change,no change,0.54,-0.13,inactive
UBE2NL,1,no change,no change,-1.27,-1.1,inactive
FAM114A1,1,no change,no change,-0.14,1.32,inactive
PRR22,1,no change,no change,0.34,0.48,inactive
BRME1,1,no change,no change,0.03,2.21,inactive
GLI4,1,no change,no change,0.44,4.98,inactive
UBE2V2,1,no change,no change,-0.47,2.5,inactive
NDUFAF1,1,no change,no change,-1.19,-0.34,inactive
RRM2,1,no change,no change,-4.27,3.46,inactive
RRM2,2,no change,no change,-0.28,-0.57,inactive
FADS6,1,no change,no change,-0.08,-0.12,inactive

Part of the list above, reduced to “caspase robust z-score”.
SLFN11 = -0.83
G6PC3 = -0.78
